Results are given in words; binding and its absence hold for the method and conditions named. Binding seen in cells or lysates may run through a third protein. Some binding calls cover weakened binding; strength is not graded here.
T1: endogenous mouse CD40 (mouse (endogenous in CH12.LX)), P27512
T1 chain: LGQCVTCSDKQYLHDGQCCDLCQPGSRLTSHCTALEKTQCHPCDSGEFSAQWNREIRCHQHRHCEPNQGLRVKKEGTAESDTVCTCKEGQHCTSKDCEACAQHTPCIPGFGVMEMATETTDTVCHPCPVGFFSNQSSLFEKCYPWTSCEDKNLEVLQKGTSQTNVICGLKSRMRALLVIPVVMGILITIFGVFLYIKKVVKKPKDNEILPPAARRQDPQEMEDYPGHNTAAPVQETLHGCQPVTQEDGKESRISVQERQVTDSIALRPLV

B1: TRAF3 (protein, UniProt Q60803 1-567)
chain: MESSKKMDAAGTLQPNPPLKLQPDRGAGSVLVPEQGGYKEKFVKTVEDKYKCEKCRLVLCNPKQTECGHRFCESCMAALLSSSSPKCTACQESIIKDKVFKDNCCKREILALQVYCRNEGRGCAEQLTLGHLLVHLKNECQFEELPCLRADCKEKVLRKDLRDHVEKACKYREATCSHCKSQVPMIKLQKHEDTDCPCVVVSCPHKCSVQTLLRSELSAHLSECVNAPSTCSFKRYGCVFQGTNQQIKAHEASSAVQHVNLLKEWSNSLEKKVSLLQNESVEKNKSIQSLHNQICSFEIEIERQKEMLRNNESKILHLQRVIDSQAEKLKELDKEIRPFRQNWEEADSMKSSVESLQNRVTELESVDKSAGQAARNTGLLESQLSRHDQMLSVHDIRLADMDLRFQVLETASYNGVLIWKIRDYKRRKQEAVMGKTLSLYSQPFYTGYFGYKMCARVYLNGDGMGKGTHLSLFFVIMRGEYDALLPWPFKQKVTLMLMDQGSSRRHLGDAFKPDPNSSSFKKPTGEMNIASGCPVFVAQTVLENGTYIKDDTIFIKVIVDTSDLPDP
B2: TRAF6, P70196 1-530 (protein)
chain: MSLLNCENSCGSSQSSSDCCAAMAASCSAAVKDDSVSGSASTGNLSSSFMEEIQGYDVEFDPPLESKYECPICLMALREAVQTPCGHRFCKACIIKSIRDAGHKCPVDNEILLENQLFPDNFAKREILSLTVKCPNKGCLQKMELRHLEDHQVHCEFALVNCPQCQRPFQKCQVNTHIIEDCPRRQVSCVNCAVSMAYEEKEIHDQSCPLANIICEYCGTILIREQMPNHYDLDCPTAPIPCTFSVFGCHEKMQRNHLARHLQENTQLHMRLLAQAVHNVNLALRPCDAASPSRGCRPEDPNYEETIKQLESRLVRQDHQIRELTAKMETQSMYVGELKRTIRTLEDKVAEMEAQQCNGIYIWKIGNFGMHLKSQEEERPVVIHSPGFYTGRPGYKLCMRLHLQLPTAQRCANYISLFVHTMQGEYDSHLPWPFQGTIRLTILDQSEALIRQNHEEVMDAKPELLAFQRPTIPRNPKGFGYVTFMHLEALRQGTFIKDDTLLVRCEVSTRFDMGGLRKEGFQPRSTDAGV

How the values were obtained:
[1] = target: endogenous mouse CD40 (mouse (endogenous in CH12.LX)) (UniProt P27512); assay: co-IP; activated receptor capture (ARC) of endogenous mouse CD40 with anti-mouse CD40 beads (1C10 on goat anti-rat IgG) from CH12.LX wild type, TRAF2-deficient and TRAF3-deficient cells; Western blot
[2] = target: T1, endogenous mouse CD40 (mouse …); assay: as above; settings: remark: other sources report otherwise

Row | Binder | binding [1] | binding [2]
1 | B1 | binds | 
2 | B2 |  | binds
